Like-named read-outs stand apart in the source and are kept apart here.
System: Echinostoma caproni
Conditions: 24 hours

## COC(=O)C1=C(C)NC(C)=C(C(=O)OC)C1c1ccccc1[N+](=O)[O-] [nifedipine, 1,4-dihydro-2,6-dimethyl-4-(2-nitrophenyl)-3,5-pyridinedicarboxylic acid dimethylester]
25 μg/ml (lowest elevated concentration)
  effect on egg production compared to controls: did not significantly inhibit
Elevated concentrations (microgram range: verapamil 50-200, nifedipine 25-200, diltiazem 5-50 μg/ml), ANOVA
  effect on egg production compared to controls: significantly inhibited
Therapeutic concentrations (nanogram range)
  effect on egg production compared to controls: approached significant levels
